# In the supplement of paper PMC8728848:
# Some of the results follow.
# B1: S100A12 (Homo sapiens), P80511 (protein)
# chain: MTKLEEHLEGIVNIFHQYSVRKGHFDTLSKGELKQLLTKELANTIKNIKDKAVIDEIFQGLDANQDEQVDFQEFISLVAIALKAAHYHTHKE
# Assays:
# Test in all cases: glycan array binding signal (z-score within array); higher = stronger binding
# Settings in all cases: glycan notation: IUPAC condensed, linker removed
# [1] = target: Fuc(a1-2)[Gal(a1-4)]Gal(b1-4)GlcNAc
# Outline: (§1)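 Arrays were curated from the Consortium for Functional Glycomics database, 3228 in total, and kept only where the protein sequence was available. Binding is expressed as a within-array Z-score. This score was averaged across arrays of the same protein sequence at different concentrations or buffers and across linkers, and negative values can be read as non-binding.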
# [2] = target: Fuc(a1-2)[GalNAc(a1-3)]Gal
# Outline: as §1
# [3] = target: Fuc(a1-2)[GalNAc(a1-3)]Gal(b1-3)GlcNAc
# Outline: as §1
# [4] = target: Fuc(a1-2)[GalNAc(a1-3)]Gal(b1-4)Glc
# Outline: as §1
# [5] = target: Fuc(a1-2)[GalNAc(a1-3)]Gal(b1-4)GlcNAc
# Outline: as §1
# [6] = target: Fuc(a1-2)[GalNAc(a1-3)]Gal(b1-4)[Fuc(a1-3)]GlcNAc
# Outline: as §1
# [7] = target: Fuc(a1-2)[GalNAc(a1-4)]Gal(b1-4)GlcNAc
# Outline: as §1
# [8] = target: Fuc(a1-2)[GalNAc(b1-3)]Gal
# Outline: as §1
# Fuc(a1-3)GlcNAc = target: Fuc(a1-3)GlcNAc
# Outline: as §1
# [9] = target: Fuc(a1-3)[Gal(b1-4)]Glc6S
# Outline: as §1
# [10] = target: Fuc(a1-3)[Gal(b1-4)]GlcNAc
# Outline: as §1
# [11] = target: Fuc(a1-3)[Gal(b1-4)]GlcNAc(b1-3)Gal(b1-3)[Fuc(a1-4)]GlcNAc
# Outline: as §1
# [12] = target: Fuc(a1-3)[Gal(b1-4)]GlcNAc(b1-4)Gal(b1-4)[Fuc(a1-3)]GlcNAc
# Outline: as §1
# [13] = target: Fuc(a1-3)[Gal(b1-4)]GlcNAc(b1-4)Gal(b1-4)[Fuc(a1-3)]GlcNAc(b1-4)Gal(b1-4)[Fuc(a1-3)]GlcNAc
# Outline: as §1
# [14] = target: Fuc(a1-3)[Gal(b1-4)]GlcNAc6S
# Outline: as §1
# [15] = target: Fuc(a1-3)[Gal3S(b1-4)]Glc
# Outline: as §1
# [16] = target: Fuc(a1-3)[Gal3S(b1-4)]Glc6S
# Outline: as §1
# [17] = target: Fuc(a1-3)[Gal3S(b1-4)]GlcNAc
# Outline: as §1
# [18] = target: Fuc(a1-3)[Gal3S(b1-4)]GlcNAc6S
# Outline: as §1
# [19] = target: Fuc(a1-3)[GalNAc(b1-4)]Gal(b1-4)GlcNAc
# Outline: as §1
# [20] = target: Fuc(a1-3)[GalNAc(b1-4)]GlcNAc
# Outline: as §1
# Fuc(a1-4)GlcNAc = target: Fuc(a1-4)GlcNAc
# Outline: as §1
# Fuc(b1-3)GlcNAc = target: Fuc(b1-3)GlcNAc
# Outline: as §1
# Gal(a1-2)Gal = target: Gal(a1-2)Gal
# Outline: as §1
# Gal(a1-3)Gal = target: Gal(a1-3)Gal
# Outline: as §1
# Gal(a1-3)Gal(b1-3)Glc = target: Gal(a1-3)Gal(b1-3)Glc
# Outline: as §1
# Gal(a1-3)Gal(b1-3)GlcNAc = target: Gal(a1-3)Gal(b1-3)GlcNAc
# Outline: as §1
# Gal(a1-3)Gal(b1-4)Glc = target: Gal(a1-3)Gal(b1-4)Glc
# Outline: as §1
# Gal(a1-3)Gal(b1-4)GlcNAc = target: Gal(a1-3)Gal(b1-4)GlcNAc
# Outline: as §1
# [21] = target: Gal(a1-3)Gal(b1-4)[Fuc(a1-3)]GalNAc
# Outline: as §1
# [22] = target: Gal(a1-3)Gal(b1-4)[Fuc(a1-3)]GlcNAc
# Outline: as §1
# Gal(a1-3)GalNAc = target: Gal(a1-3)GalNAc
# Outline: as §1
# Gal(a1-3)GlcNAc = target: Gal(a1-3)GlcNAc
# Outline: as §1
# [23] = target: Gal(a1-3)[Gal(a1-4)]Gal(b1-4)GlcNAc
# Outline: as §1
# Gal(a1-4)Gal(b1-4)Gal = target: Gal(a1-4)Gal(b1-4)Gal
# Outline: as §1
# Gal(a1-4)Gal(b1-4)GalNAc = target: Gal(a1-4)Gal(b1-4)GalNAc
# Outline: as §1
# Gal(a1-4)Gal(b1-4)Glc = target: Gal(a1-4)Gal(b1-4)Glc
# Outline: as §1
# Gal(a1-4)Gal(b1-4)GlcNAc = target: Gal(a1-4)Gal(b1-4)GlcNAc
# Outline: as §1
# Gal(a1-4)GlcNAc = target: Gal(a1-4)GlcNAc
# Outline: as §1
# Gal(a1-6)Glc = target: Gal(a1-6)Glc
# Outline: as §1
# Gal(b1-2)Gal = target: Gal(b1-2)Gal
# Outline: as §1
# Gal(b1-3)Gal = target: Gal(b1-3)Gal
# Outline: as §1
# Gal(b1-3)GalNAc = target: Gal(b1-3)GalNAc
# Outline: as §1
# [24] = target: Gal(b1-3)GalNAc(b1-3)Gal(a1-4)Gal(b1-4)Glc
# Outline: as §1
# [25] = target: Gal(b1-3)GalNAc(b1-3)Gal(b1-4)Glc
# Outline: as §1
binder,measurement,setting,value
B1,glycan array binding signal (z-score),[1],-0.056
same,glycan array binding signal (z-score),[2],-0.376
same,glycan array binding signal (z-score),[3],-0.554
same,glycan array binding signal (z-score),[4],-0.323
same,glycan array binding signal (z-score),[5],-0.513
same,glycan array binding signal (z-score),[6],-0.154
same,glycan array binding signal (z-score),[7],-0.766
same,glycan array binding signal (z-score),[8],-1.17
same,glycan array binding signal (z-score),Fuc(a1-3)GlcNAc,-0.912
same,glycan array binding signal (z-score),[9],-0.027
same,glycan array binding signal (z-score),[10],-0.769
same,glycan array binding signal (z-score),[11],-0.592
same,glycan array binding signal (z-score),[12],0.602
same,glycan array binding signal (z-score),[13],-0.612
same,glycan array binding signal (z-score),[14],-0.53
same,glycan array binding signal (z-score),[15],-0.478
same,glycan array binding signal (z-score),[16],0.196
same,glycan array binding signal (z-score),[17],-0.314
same,glycan array binding signal (z-score),[18],1.46
same,glycan array binding signal (z-score),[19],-0.441
same,glycan array binding signal (z-score),[20],-0.602
same,glycan array binding signal (z-score),Fuc(a1-4)GlcNAc,-0.046
same,glycan array binding signal (z-score),Fuc(b1-3)GlcNAc,-0.352
same,glycan array binding signal (z-score),Gal(a1-2)Gal,0.006
same,glycan array binding signal (z-score),Gal(a1-3)Gal,-0.12
same,glycan array binding signal (z-score),Gal(a1-3)Gal(b1-3)Glc,-0.158
same,glycan array binding signal (z-score),Gal(a1-3)Gal(b1-3)GlcNAc,-0.683
same,glycan array binding signal (z-score),Gal(a1-3)Gal(b1-4)Glc,-1.47
same,glycan array binding signal (z-score),Gal(a1-3)Gal(b1-4)GlcNAc,-0.667
same,glycan array binding signal (z-score),[21],-0.451
same,glycan array binding signal (z-score),[22],-1.07
same,glycan array binding signal (z-score),Gal(a1-3)GalNAc,-0.788
same,glycan array binding signal (z-score),Gal(a1-3)GlcNAc,-0.251
same,glycan array binding signal (z-score),[23],-0.604
same,glycan array binding signal (z-score),Gal(a1-4)Gal(b1-4)Gal,0.185
same,glycan array binding signal (z-score),Gal(a1-4)Gal(b1-4)GalNAc,-0.119
same,glycan array binding signal (z-score),Gal(a1-4)Gal(b1-4)Glc,0.145
same,glycan array binding signal (z-score),Gal(a1-4)Gal(b1-4)GlcNAc,-0.446
same,glycan array binding signal (z-score),Gal(a1-4)GlcNAc,-0.268
same,glycan array binding signal (z-score),Gal(a1-6)Glc,0.773
same,glycan array binding signal (z-score),Gal(b1-2)Gal,-0.083
same,glycan array binding signal (z-score),Gal(b1-3)Gal,-0.262
same,glycan array binding signal (z-score),Gal(b1-3)GalNAc,-0.254
same,glycan array binding signal (z-score),[24],-0.547
same,glycan array binding signal (z-score),[25],-0.286

# Random excerpt: 2 entries already listed, in no set order.
binder,measurement,setting,value
B1,glycan array binding signal (z-score),Gal(a1-4)Gal(b1-4)GalNAc,-0.119
same,glycan array binding signal (z-score),Gal(a1-3)GlcNAc,-0.251
